PubChem BioAssay AID1259424, University of Nebraska Medical Center, 2018

Assay: 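Rank knockdowns across the genome by resemblance to the KSR1 depletion profile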 (primary screen)
System: human HCT116 colon cancer cells
Reagents: siRNA pool against human genes, 50 nM
Detection: 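Log2 levels of six mRNAs (branched-DNA multiplex), adjusted by two reference genes and the non-targeting median, then scored against the average KSR1 knockdown pattern as Pearson r and euclidean distance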
Scale: mean correlation with KSR1 profile and KSR1 correlation: higher = expression change more like KSR1 knockdown; mean distance from KSR1 profile: higher = expression change less like KSR1 knockdown
In all, the deposit lists about 14,000 reagents; shown is an unselected part. 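Higher correlation or smaller distance means closer resemblance to KSR1 loss; control wells, including KSR1 knockdowns, recur on many plates.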 Reagents against one gene are numbered here. Not all columns of the deposit are shown. The record does not give: the time to read-out.

no.	gene knocked down	reagent	mean correlation with KSR1 profile	mean distance from KSR1 profile	KSR1 correlation, replicate 1
1	MAEL	1	0.542	1.23	0.479
2	CASP6	1	0.512	1.19	-0.377
3	AIF1L	1	0.561	2.71	0.487
4	HMGN4	1	-0.126	2.67	-0.135
5	TESC	1	-0.326	3.07	-0.135
6	TMEM126A	1	0.828	1.8	0.72
7	TRAF1	1	-0.368	4.22	-0.335
8	HBA2	1	0.303	2.35	0.14
9	TLE1	1	-0.468	2.48	-0.414
10	PTPN11	1	-0.363	0.996	-0.296
11	IGLJ3	1	-0.313	2.02	-0.365
12	CFP	1	-0.0887	1.72	-0.232
13	UIMC1	1	-0.0743	2.49	-0.163
14	NSG1	1	-0.682	1.91	-0.813
15	SART1	1	0.276	2.57	0.261
16	WASHC5	1	-0.35	1.83	-0.335
17	USP12	1	-0.455	1.39	-0.128
18	ADORA1	1	0.523	1.86	0.511
19	H2AB3	1	0.723	1.38	0.553
20	TRA2A	1	0.677	1.61	0.539
21	BTBD3	1	-0.47	1.91	-0.189
22	ACTN4	1	-0.365	1.15	0.0384
23	RAD9A	1	0.336	0.874	0.326
24	TUSC3	1	0.79	0.893	0.805
25	CAMK1	1	-0.514	3.73	-0.494
26	ZFP36L1	1	-0.371	3.06	0.234
27	IGF2BP2	1	0.594	4.46	0.572
28	DIMT1	1	0.372	2.09	0.258
29	COQ3	1	-0.371	2.5	-0.0601
30	CLEC7A	1	-0.209	1.84	-0.0368
31	MMP23A	1	0.376	1.91	0.395
32	TM7SF3	1	-0.738	3.13	-0.589
33	CAMKK2	1	0.271	2.26	0.225
34	ZNF586	1	0.0615	3.76	0.0768
35	BCAM	1	0.0368	1.69	0.0133
36	ING4	1	0.203	2.5	0.416
37	NDUFB3	1	-0.368	3.35	-0.184
38	MAMLD1	1	-0.355	1.79	-0.398
39	ZNF593	1	-0.336	1.57	0.0149
40	ZNF419	1	0.663	1.33	0.641
41	SLC39A10	1	0.22	1.53	0.387
42	SFMBT1	1	-0.595	1.76	-0.49
43	MAS1	1	0.636	1.33	0.694
44	MIIP	1	0.275	1.57	-0.0139
45	OR3A1	1	0.817	1.99	0.814
46	DNAJA3	1	0.146	2.34	0.313
47	CPNE1	1	0.185	1.61	0.372
48	GALR2	1	0.68	1.67	0.747
49	ICA1L	1	0.12	0.923	0.555
50	ICA1L	2	0.208	1.59	-0.0958
